Reference: PubChem BioAssay AID1159584 (Peter MacCallum Cancer Centre, 2016)

Aim: 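Genes whose loss is lethal only together with E-cadherin loss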 (primary screen)
Cells: human MCF10A breast epithelial cells, parental and CDH1-null
Reagents: siRNA against human genes
Measurement: 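Cell viability by CellTiter-Glo ATP luminescence, each line scaled to the mean of mock wells across plates, then CDH1-null over parental ratio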
Reading the numbers: CDH1-null / parental viability ratio: higher = CDH1-null cells survive relatively better than parental; CDH1-null viability vs mock: higher = more viable CDH1-null cells
Here is an unselected part of about 18,000 reagents tested. Further read-outs or replicates are left out here. Not stated in the record: the amount of reagent, the time to read-out.

| gene knocked down | CDH1-null / parental viability ratio | CDH1-null viability vs mock (fraction of mock) |
| --- | --- | --- |
| FBXW5 | 0.87 | 0.58 |
| SLC7A9 | 1.01 | 1 |
| WDR55 | 1 | 0.74 |
| NT5C | 1.57 | 0.85 |
| ACTR1B | 1.09 | 0.98 |
| TMSB4X | 0.92 | 0.74 |
| ERLIN2 | 1.18 | 0.59 |
| OR5L2 | 0.98 | 0.55 |
| PAK5 | 1.1 | 0.97 |
| SELL | 1.34 | 1.02 |
| FEZF1 | 0.97 | 0.86 |
| PGM3 | 1 | 0.92 |
| TNNI2 | 1.3 | 0.83 |
| FOXD2 | 0.84 | 0.81 |
| TCIM | 1 | 0.38 |
| DNAH7 | 0.86 | 0.79 |
| ASH2L | 1.31 | 0.92 |
| CUL4B | 1.24 | 0.82 |
| TPSAB1 | 1.05 | 0.84 |
| OR10J1 | 1.26 | 1.08 |
| PPM1G | 1.3 | 0.95 |
| SIAH2 | 0.99 | 0.87 |
| SSH3 | 1.45 | 0.9 |
| DEFB124 | 1.06 | 0.76 |
| PDE4A | 0.85 | 0.9 |
| TREH | 0.9 | 0.81 |
| KCNH4 | 1.13 | 0.88 |
| ZNF10 | 1.3 | 1.04 |

Taken from above.
PAK5, CDH1-null / parental viability ratio: 1.1
Under “CDH1-null viability vs mock (fraction of mock)”, FOXD2 is entered as 0.81
SLC7A9, CDH1-null / parental viability ratio: 1.01
Under “CDH1-null viability vs mock (fraction of mock)”, PDE4A is entered as 0.9

The listing continues:
| gene knocked down | CDH1-null / parental viability ratio | CDH1-null viability vs mock (fraction of mock) |
| --- | --- | --- |
| RGS14 | 1.13 | 0.61 |
| SEMA6B | 1 | 0.84 |
| ASPDH | 1.03 | 0.78 |
| SELP | 0.78 | 0.5 |
| RAB32 | 1 | 0.9 |
| DUX1 | 1.18 | 1.06 |
| DCLRE1B | 0.74 | 0.64 |
| POLD2 | 0.99 | 0.86 |
| SFTPB | 1.2 | 0.98 |
| FCRLA | 0.86 | 0.76 |
| LRRIQ1 | 0.91 | 0.82 |
| CDC25B | 1.33 | 0.88 |
| OTUB1 | 1.03 | 0.7 |
| THAP12 | 1 | 0.92 |
| PRM2 | 1.79 | 0.7 |
| OPCML | 0.96 | 1.1 |
| YEATS4 | 0.78 | 0.78 |
| TPTE2 | 1.25 | 0.86 |
